Results deposited as PubChem BioAssay AID504764 (Drosophila RNAi Screening Center, 2011)

Aim: 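Genes whose knock-down alters Notch-dependent transcription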 (primary screen)
System: Drosophila Kc167 cells
Reagent: long dsRNA against Drosophila genes
Duration: about 5 days (4 days dsRNA, then 24 h after transfection)
Treatment: transfection of constitutively active membrane-tethered Notch lacking the extracellular domain, read 24 h later
Measured: 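Firefly luciferase from an E(spl)m3 reporter with active Notch, plus control-promoter and uninduced reporter wells for normalisation; unnormalised counts, duplicate wells a and b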
Scale: induced reporter light, run 1, well a and induced reporter light, run 1, well b: higher = more light from the Notch target reporter with active Notch; control promoter light, run 1, well a and control promoter light, run 1, well b: higher = more light from the viral control promoter (cell number, transfection, viability); uninduced reporter light, run 1, well a: higher = more light from the Notch target reporter without active Notch
Rule for the call: 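Hit if the duplicate-averaged log2 ratio of induced to control-promoter light gives a plate-wise z beyond ±2, or induced to uninduced beyond ±1.8; weak-control or discordant-duplicate wells dropped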
Calls: active = modifier hit (raised or lowered Notch signal); inactive = not a hit
The deposit covers about 22,000 reagents; this is an unselected part of those that have a named target and a result. Of all reagents, 403 (1.9%) got an active call. 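Unnormalised raw counts per well; ratio z-scores behind the hit calls and whether each hit raises or lowers signal are not deposited.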 A plus sign joins genes that one reagent is predicted to hit. The record does not give: the amount of reagent.

| Gene | DRSC id | induced reporter light, run 1, well a | induced reporter light, run 1, well b | control promoter light, run 1, well a | control promoter light, run 1, well b | uninduced reporter light, run 1, well a | activity call |
| --- | --- | --- | --- | --- | --- | --- | --- |
| CG33060 | DRSC09939 | 1.63e5 | 1.54e5 | 2.33e5 | 1.72e5 | 7580 | inactive |
| ced-6 | DRSC07591 | 1.46e5 | 1.49e5 | 1.91e5 | 1.60e5 | 14528 | inactive |
| CG12883 | DRSC14570 | 1.81e5 | 1.45e5 | 2.33e5 | 2.22e5 | 16415 | inactive |
| RPA3 | DRSC19658 | 1.10e5 | 95550 | 1.59e5 | 1.75e5 | 7890 | inactive |
| pcx | DRSC18186 | 1.36e5 | 93015 | 2.93e5 | 2.86e5 | 8745 | active |
| pcx | DRSC18187 | 1.33e5 | 1.78e5 | 2.18e5 | 1.92e5 | 8305 | inactive |
| pcx | DRSC18188 | 1.10e5 | 1.19e5 | 1.95e5 | 1.35e5 | 7040 | inactive |
| pcx | DRSC18189 | 1.39e5 | 1.23e5 | 1.90e5 | 1.88e5 | 8945 | inactive |
| pcx | DRSC18190 | 1.06e5 | 1.16e5 | 1.61e5 | 2.20e5 | 6430 | inactive |
| pcx | DRSC18816 | 1.62e5 | 2.12e5 | 2.04e5 | 2.19e5 | 11960 | inactive |
| Fer3HCH | DRSC19892 | 1.28e5 | 1.40e5 | 2.77e5 | 1.90e5 | 9380 | inactive |
| Nufip | DRSC10397 | 1.25e5 | 1.28e5 | 1.05e5 | 1.29e5 | 11582 | inactive |
| CG46301 | DRSC01916 | 1.12e5 | 1.15e5 | 99745 | 1.33e5 | 10235 | inactive |
| vilya | DRSC18588 | 1.15e5 | 1.34e5 | 2.28e5 | 1.54e5 | 7092 | inactive |
| CG3009 | DRSC18263 | 2.27e5 | 2.39e5 | 3.18e5 | 2.91e5 | 15192 | inactive |
| CG3224 | DRSC18295 | 1.19e5 | 1.52e5 | 2.61e5 | 2.81e5 | 9090 | inactive |
| CheB74a | DRSC09503 | 1.76e5 | 1.54e5 | 2.43e5 | 2.47e5 | 20350 | inactive |
| CG9119 | DRSC08620 | 1.03e5 | 1.17e5 | 1.76e5 | 2.42e5 | 10725 | inactive |
| BuGZ | DRSC02642 | 1.56e5 | 1.81e5 | 70500 | 82715 | 10055 | active |
| BuGZ | DRSC02643 | 1.36e5 | 1.47e5 | 1.32e5 | 1.44e5 | 9975 | inactive |
| wat | DRSC14854 | 1.14e5 | 1.07e5 | 1.38e5 | 1.49e5 | 10955 | inactive |
| Nup160 + RfC38 | DRSC01997 | 1.79e5 | 2.05e5 | 1.91e5 | 2.04e5 | 17270 | inactive |
| Gbp3 | DRSC15206 | 1.97e5 | 1.45e5 | 2.07e5 | 2.07e5 | 13665 | inactive |
| Ing5 | DRSC03188 | 1.80e5 | 1.84e5 | 1.48e5 | 1.72e5 | 19120 | active |
| Arf6 | DRSC05921 | 61970 | 61145 | 82360 | 74910 | 6470 | inactive |
| CG3597 | DRSC00617 | 1.47e5 | 1.44e5 | 1.08e5 | 67990 | 12275 | inactive |
| Cpr51A | DRSC05969 | 72445 | 1.01e5 | 1.25e5 | 1.12e5 | 8785 | inactive |
| Past1 | DRSC16784 | 58970 | 83295 | 78345 | 52045 | 5715 | inactive |
| CG9386 | DRSC16485 | 83970 | 90355 | 1.21e5 | 87430 | 8205 | inactive |
| CG5897 | DRSC10555 | 1.30e5 | 1.55e5 | 2.00e5 | 1.48e5 | 7092 | inactive |
| CG3330 | DRSC15477 | 51630 | 69860 | 55950 | 55310 | 3870 | inactive |
| Sc2 | DRSC08162 | 1.27e5 | 1.18e5 | 1.09e5 | 52405 | 11625 | inactive |
| Sema5c | DRSC11279 | 50345 | 50035 | 62005 | 80550 | 2775 | inactive |
| Lk6 | DRSC12867 | 1.55e5 | 1.63e5 | 1.26e5 | 1.33e5 | 15025 | inactive |
| Lk6 | DRSC16728 | 1.60e5 | 1.88e5 | 1.09e5 | 87200 | 11285 | inactive |
| CaMKI | DRSC17162 | 1.93e5 | 2.63e5 | 2.89e5 | 2.81e5 | 17150 | inactive |
| CG12084 | DRSC08247 | 93375 | 1.04e5 | 1.86e5 | 2.18e5 | 9595 | inactive |
| cona | DRSC16281 | 2.09e5 | 1.75e5 | 1.95e5 | 1.76e5 | 11575 | inactive |
| CG15404 | DRSC00418 | 1.47e5 | 1.15e5 | 1.54e5 | 1.58e5 | 8135 | inactive |
| CG17650 | DRSC00510 | 13615 | 11105 | 8988 | 8395 | 1290 | inactive |
| CG34408 | DRSC17733 | 1.81e5 | 1.85e5 | 2.06e5 | 1.73e5 | 11980 | inactive |
| CG34408 | DRSC21926 | – | – | – | – | – | inactive |
| alrm | DRSC14436 | 1.52e5 | 1.32e5 | 1.98e5 | 1.87e5 | 11260 | inactive |
| Mal-B2 | DRSC02417 | 1.63e5 | 1.85e5 | 2.47e5 | 2.37e5 | 12675 | inactive |
| Ublcp1 | DRSC14149 | 1.50e5 | 1.76e5 | 1.79e5 | 2.18e5 | 12935 | inactive |
| CG5281 | DRSC15761 | 87840 | 68135 | 56030 | 50965 | 5210 | inactive |
| Tsc1 | DRSC16890 | 79430 | 90325 | 85835 | 96710 | 4065 | active |
| Octbeta2R | DRSC15350 | 52100 | 61945 | 51195 | 42845 | 4025 | inactive |
| Octbeta2R | DRSC16165 | 56285 | 38965 | 24410 | 22380 | 4885 | inactive |
| TSG101 | DRSC11098 | 2.36e5 | 2.40e5 | 2.61e5 | 1.73e5 | 10000 | inactive |

A run of entries taken from the entries so far:
| Gene | DRSC id | induced reporter light, run 1, well a | induced reporter light, run 1, well b | control promoter light, run 1, well a | control promoter light, run 1, well b | uninduced reporter light, run 1, well a | activity call |
| --- | --- | --- | --- | --- | --- | --- | --- |
| CG34408 | DRSC17733 | 1.81e5 | 1.85e5 | 2.06e5 | 1.73e5 | 11980 | inactive |
| CG34408 | DRSC21926 | – | – | – | – | – | inactive |
| alrm | DRSC14436 | 1.52e5 | 1.32e5 | 1.98e5 | 1.87e5 | 11260 | inactive |
